# Earlier results as cited in US20050009897A1, “Method of treatment” (priority 2001, published 2005).
# Settings: 45 hypertensive diabetic patients; cited from earlier work
structure (smiles),measurement,value
CC(C)NCC(O)COc1ccc(CC(N)=O)cc1 (stereo not shown) [atenolol],HbA1c,increased
